PubChem BioAssay AID2685 (National Center for Advancing Translational Sciences (NCATS), 2010)
The list shows a part of the results. Further columns of the screen follow, without active or inactive calls. Most of these compounds were active or inconclusive in the main read-out, so they are no random draw. The note in brackets gives the kind of curve behind each potency; many fits are weak.

Assay: qHTS Assay for Lipid Storage Modulators in Drosophila S3 Cells;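 on cell number change: cells counted by Cell Tracker Red CMTPX staining in the red channel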
Details: BODIPY lipid droplet fluorescence, 18-24 h; for cell number change: measured here: cell count max response, cells fed with added oleic acid
In short: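 Drosophila S3 cells got compounds at several concentrations plus oleic acid (400 uM solution). Laser-scanning cytometry with 488 nm excitation read lipid droplets at 500-530 nm and cells at 575-640 nm. Percent activity was relative to 20 uM Triacsin C.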

[1] = measured here: cell number channel AC50, cells fed with added oleic acid
[2] = measured here: lipid fluorescence (Fed channel) AC50, cells fed with added oleic acid

| Structure (SMILES) | cell number change | AC50 [1] | AC50 [2] |
| --- | --- | --- | --- |
| Cc1ccc(C(=O)OCC(=O)NC2CCCCC2)s1 | -27% | 0.146 µM [falling, full curve, poor fit] | 0.92 µM [falling, partial curve] |
| CC1(c2cccc(Br)c2)NC(=O)N(CC(=O)Nc2cccnc2Cl)C1=O (stereo not drawn) | 2.02% | – | – |
| Cc1c(N(C)S(=O)(=O)c2cccc(C(=O)NC(C)C)c2)c(=O)n(-c2ccccc2)n1C | 5.41% | – | 29.1 µM [falling, single point] |
| Cc1cc(C)n2nc(C(=O)OCC(=O)Nc3ccc4c(c3)OCCO4)nc2n1 | -30.3% | 32.6 µM [falling, single point] | 0.058 µM [falling, full curve, poor fit] |
| COc1ccc(C2CC(=O)Nc3cc(C)c(C)cc32)c(OC)c1OC (stereo not drawn) | 84.2% | 20.6 µM [rising, partial curve, poor fit] | 1.84 µM [rising, full curve] |
| CCOCc1nnc(NC(=O)c2cc(OC)cc(OC)c2)s1 | 21% | 2.91 µM [rising, single point] | – |
| COc1ccc(Cl)c2sc(N3CCN(C(=O)c4ccco4)CC3)nc12 | -14.7% | – | 23.1 µM [falling, single point] |
| N#Cc1ccc(COC(=O)c2cc(=O)c3ccccc3o2)cc1 | -2.31% | – | – |
| Cc1ccc(S(=O)(=O)N2CCOCC2)cc1NC(=O)CNC1CCCC1 | 9.38% | 0.58 µM [falling, full curve] | 0.58 µM [falling, full curve] |
| COc1ccc(C(=O)NCC(=O)OCC(=O)c2ccc3c(c2)NC(=O)CO3)cc1OC | -8.3% | 0.366 µM [rising, partial curve, poor fit] | – |
| COc1cc([N+](=O)[O-])ccc1NC(=O)CCCOc1ccc(C)cc1 | 35.6% | – | – |
| Cc1c(Cl)c([N+](=O)[O-])nn1Cc1ccc(C(=O)N/N=C\c2cc(Cl)ccc2O)o1 | -32.5% | 0.461 µM [falling, full curve, poor fit] | 9.2 µM [falling, single point] |
| CC(=O)c1ccc(NC(=O)COC(=O)C2CCN(S(=O)(=O)c3cccs3)CC2)cc1 | -1.2% | – | – |
| CCOC(=O)c1c(NC(=O)CSc2nc3cccnc3n2C)sc(C(C)=O)c1C | -4.99% | 5.8 µM [falling, single point] | 6.51 µM [falling, single point] |
| CC(C)(O)C#Cc1ccc(C(=O)N2CCC(C(N)=O)(N3CCCCC3)CC2)cc1 | 44.7% | 0.82 µM [rising, full curve, poor fit] | – |
| Cc1nn(-c2ccccc2)c(N2CCCC2)c1/C=N/Nc1ccc(S(=O)(=O)Nc2ccccc2)cc1[N+](=O)[O-] | -97.4% | 1.3 µM [falling, full curve] | 0.13 µM [falling, full curve, poor fit] |
| COc1cc2cc(CN(CCO)S(=O)(=O)c3ccccc3Cl)c(=O)[nH]c2cc1OC | 4.34% | – | – |
| CSc1ccc(CNC(C)(C)CO)cc1 | 6.37% | – | 23.1 µM [rising, single point] |
| CCOC(=O)N1CCN(C(=O)/C(=C/c2cccs2)NC(=O)c2ccc(OC)c(OC)c2)CC1 | -2.56% | 2.91 µM [rising, partial curve] | – |

Of the compounds above, these contain a furan ring, fused or not.

| Structure (SMILES) | cell number change | AC50 [1] | AC50 [2] |
| --- | --- | --- | --- |
| COc1ccc(Cl)c2sc(N3CCN(C(=O)c4ccco4)CC3)nc12 | -14.7% | – | 23.1 µM [falling, single point] |
| Cc1c(Cl)c([N+](=O)[O-])nn1Cc1ccc(C(=O)N/N=C\c2cc(Cl)ccc2O)o1 | -32.5% | 0.461 µM [falling, full curve, poor fit] | 9.2 µM [falling, single point] |

Next part.

| Structure (SMILES) | cell number change | AC50 [1] | AC50 [2] |
| --- | --- | --- | --- |
| O=C(NCCCN1CCOCC1)c1cnn2c(-c3ccccc3)cc(-c3ccccc3)nc12 | 0.424% | – | – |
| CN(C1CCCCC1)S(=O)(=O)c1ccc(C(=O)O)cc1 | 16.2% | – | – |
| CCOC(=O)c1c(NC(=O)C2c3ccccc3Oc3ccccc32)sc(C(=O)N(CC)CC)c1C | -20% | – | – |
| COc1ccc([C@@H]2[C@@H]3C(=O)N(C(C)(C)C)C(=O)[C@@H]3[C@]3(C)C(=O)N(c4ccccc4)C(=O)N23)cc1 | 21.7% | – | – |
| CCN(CC)S(=O)(=O)c1ccc(NC(=O)c2cccnc2Cl)c(NC(=O)c2cccnc2Cl)c1 | 54.4% | – | – |
| CN1C(=O)/C(=C\C=C2/CCCN2C)N(C)C1=S | 7.14% | – | 6.51 µM [rising, single point] |
| CC1CCN(C(=O)C2CCC(CNS(=O)(=O)c3cccc4cccnc34)CC2)CC1 (stereo not drawn) | 17.6% | 0.146 µM [rising, full curve, poor fit] | – |
| COc1cc(NC(=O)c2c(Cl)cnn2C)c(OC)cc1Cl | 2.89% | – | 0.092 µM [falling, full curve, poor fit] |
| O=c1c(/C=N/Nc2ccccc2)c(Sc2nnnn2-c2ccccc2)nc2ccccn12 | 20.8% | 0.259 µM [rising, full curve, poor fit] | – |
| CN(C)c1ccc(C2CC(=O)OC3=C2C(=O)CC(C)(C)C3)cc1 (stereo not drawn) | -19.9% | – | 1.46 µM [falling, full curve] |
| CCn1c(COc2ccccc2)nnc1SCC(=O)CC(=O)Nc1ccccc1OC | 8.18% | 6.51 µM [rising, single point] | – |
| O=C1CCC/C(=N/NC(=O)c2ccc(CN3c4cccc5cccc(c45)S3(=O)=O)cc2)C1 | 11.8% | – | – |
| CC(C)c1ccc(/C=C/C(=O)n2nnc3ccccc32)cc1 | 0.702% | – | – |
| CCCCn1c(NCCN(C)C)nc2c1c(=O)[nH]c(=O)n2C | -27.8% | – | 5.17 µM [falling, partial curve] |
| CCn1ccc(C(=O)Nc2ccc3c(c2)CCC3)n1 | -33.4% | 7.31 µM [falling, partial curve, poor fit] | 29.1 µM [falling, single point] |
| Cc1ccc(NC(=O)CCN2CCN(C/C=C/c3ccccc3)CC2)cc1C | -28.5% | – | 16.4 µM [falling, partial curve] |
| Cc1cccc(-n2ncc3c(Nc4ccc(F)cc4)ncnc32)c1 | -32.4% | 16.4 µM [falling, single point] | 29.1 µM [falling, single point] |
| CC1(C)CC(=O)C2=C(C1)NC(Nc1nc3ccccc3o1)=NC21CCCCC1 | – | 1.64 µM [rising, partial curve] | 1.46 µM [rising, partial curve, poor fit] |
| O=C(CN1C(=O)c2cccc3cccc1c23)NCC1CCCO1 (stereo not drawn) | 2.97% | – | 29.1 µM [rising, single point] |
